Results are given in words; binding and its absence hold for the method and conditions named. Binding seen in cells or lysates may run through a third protein. These calls come from enrichment with a bait or labelling near it, and not all partners need be listed. Where a sequence is shown, tags or fusion partners need not be part of it.
T1: KDELR1-Myc-BirA* (human) (UniProt P24390)
T1 sequence: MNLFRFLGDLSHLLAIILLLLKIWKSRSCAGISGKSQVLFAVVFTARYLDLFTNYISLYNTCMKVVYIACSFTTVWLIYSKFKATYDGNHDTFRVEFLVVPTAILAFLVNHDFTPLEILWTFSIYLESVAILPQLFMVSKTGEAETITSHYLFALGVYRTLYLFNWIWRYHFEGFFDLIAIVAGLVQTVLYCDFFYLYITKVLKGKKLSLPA

By UniProt entry, the sequences of proteins in these tests, tags left out.
UniProt Q9NP61: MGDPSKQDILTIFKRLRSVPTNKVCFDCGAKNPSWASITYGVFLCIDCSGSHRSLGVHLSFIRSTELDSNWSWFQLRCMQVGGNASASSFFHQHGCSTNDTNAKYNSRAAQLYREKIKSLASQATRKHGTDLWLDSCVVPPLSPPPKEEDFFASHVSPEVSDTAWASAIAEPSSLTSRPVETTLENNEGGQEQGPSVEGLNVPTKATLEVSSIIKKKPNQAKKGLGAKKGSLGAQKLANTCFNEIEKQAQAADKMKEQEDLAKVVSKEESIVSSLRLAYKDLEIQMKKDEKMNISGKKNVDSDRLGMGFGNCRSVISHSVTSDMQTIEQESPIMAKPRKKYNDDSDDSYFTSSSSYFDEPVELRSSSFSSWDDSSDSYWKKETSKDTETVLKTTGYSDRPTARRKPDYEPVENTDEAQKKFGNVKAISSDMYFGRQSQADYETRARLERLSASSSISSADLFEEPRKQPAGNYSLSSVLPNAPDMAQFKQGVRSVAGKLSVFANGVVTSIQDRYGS
UniProt Q9H3P7: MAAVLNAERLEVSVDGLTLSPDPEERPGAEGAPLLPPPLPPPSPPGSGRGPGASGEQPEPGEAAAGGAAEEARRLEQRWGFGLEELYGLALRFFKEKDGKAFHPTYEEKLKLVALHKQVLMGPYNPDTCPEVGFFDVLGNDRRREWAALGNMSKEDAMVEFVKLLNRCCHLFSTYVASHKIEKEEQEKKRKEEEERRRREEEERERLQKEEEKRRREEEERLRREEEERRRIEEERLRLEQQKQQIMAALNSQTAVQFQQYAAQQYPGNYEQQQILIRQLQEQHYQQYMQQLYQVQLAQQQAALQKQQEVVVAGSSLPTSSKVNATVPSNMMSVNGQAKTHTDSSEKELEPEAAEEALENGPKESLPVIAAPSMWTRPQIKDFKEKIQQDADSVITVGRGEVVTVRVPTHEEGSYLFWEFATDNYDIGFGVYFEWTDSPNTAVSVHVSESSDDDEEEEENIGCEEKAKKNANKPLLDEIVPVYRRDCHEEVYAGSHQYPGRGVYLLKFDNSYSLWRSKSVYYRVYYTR
UniProt Q8N6T3: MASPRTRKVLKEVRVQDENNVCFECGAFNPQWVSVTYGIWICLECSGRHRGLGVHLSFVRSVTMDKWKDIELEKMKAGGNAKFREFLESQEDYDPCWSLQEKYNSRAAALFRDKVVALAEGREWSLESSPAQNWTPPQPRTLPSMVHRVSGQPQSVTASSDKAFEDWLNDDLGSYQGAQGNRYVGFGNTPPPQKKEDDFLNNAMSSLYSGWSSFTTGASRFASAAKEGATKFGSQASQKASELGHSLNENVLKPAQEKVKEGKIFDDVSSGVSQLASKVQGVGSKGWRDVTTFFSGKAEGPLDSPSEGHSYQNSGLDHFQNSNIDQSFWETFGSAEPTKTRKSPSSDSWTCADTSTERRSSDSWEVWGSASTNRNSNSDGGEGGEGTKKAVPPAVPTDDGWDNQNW


biological target: T1, KDELR1-Myc-BirA* (human); assay: proximity labelling; BioID: KDELR1-Myc-BirA* transfected into HeLa for 24 h, 50 μM biotin for 6 h, lysis, Streptavidin Agarose, label-free mass spectrometry in triplicate against KDELR1-Myc control

binding	Molecule
binds	ArfGAP3 (endogenous) (from UniProt Q9NP61 1-516)
binds	ACBD3 (endogenous) (from UniProt Q9H3P7 1-528)
binds	Syntaxin 5 (endogenous) (protein, UniProt Q13190 1-355) MIPRKRYGSKNTDQGVYLGLSKTQVLSPATAGSSSSDIAPLPPPVTLVPPPPDTMSCRDRTQEFLSACKSLQTRQNGIQTNKPALRAVRQRSEFTLMAKRIGKDLSNTFAKLEKLTILAKRKSLFDDKAVEIEELTYIIKQDINSLNKQIAQLQDFVRAKGSQSGRHLQTHSNTIVVSLQSKLASMSNDFKSVLEVRTENLKQQRSRREQFSRAPVSALPLAPNHLGGGAVVLGAESHASKDVAIDMMDSRTSQQLQLIDEQDSYIQSRADTMQNIESTIVELGSIFQQLAHMVKEQEETIQRIDENVLGAQLDVEAAHSEILKYFQSVTSNRWLMVKIFLILIVFFIIFVVFLA

The next lines start with the molecule.

Molecule	binding
ArfGAP1 (endogenous) (from UniProt Q8N6T3 1-406)	binds
Golgin160 (endogenous) (protein, UniProt Q08378 1-1498) MDGASAEQDGLQEDRSHSGPSSLPEAPLKPPGPLVPPDQQDKVQCAEVNRASTEGESPDGPGQGGLCQNGPTPPFPDPPSSLDPTTSPVGPDASPGVAGFHDNLRKSQGTSAEGSVRKEALQSLRLSLPMQETQLCSTDSPLPLEKEEQVRLQARKWLEEQLKQYRVKRQQERSSQPATKTRLFSTLDPELMLNPENLPRASTLAMTKEYSFLRTSVPRGPKVGSLGLPAHPREKKTSKSSKIRSLADYRTEDSNAGNSGGNVPAPDSTKGSLKQNRSSAASVVSEISLSPDTDDRLENTSLAGDSVSEVDGNDSDSSSYSSASTRGTYGILSKTVGTQDTPYMVNGQEIPADTLGQFPSIKDVLQAAAAEHQDQGQEVNGEVRSRRDSICSSVSLESSAAETQEEMLQVLKEKMRLEGQLEALSLEASQALKEKAELQAQLAALSTKLQAQVECSHSSQQRQDSLSSEVDTLKQSCWDLERAMTDLQNMLEAKNASLASSNNDLQVAEEQYQRLMAKVEDMQRSMLSKDNTVHDLRQQMTALQSQLQQVQLERTTLTSKLKASQAEISSLQSVRQWYQQQLALAQEARVRLQGEMAHIQVGQMTQAGLLEHLKLENVSLSQQLTETQHRSMKEKGRIAAQLQGIEADMLDQEAAFMQIQEAKTMVEEDLQRRLEEFEGERERLQRMADSAASLEQQLEQVKLTLLQRDQQLEALQQEHLDLMKQLTLTQEALQSREQSLDALQTHYDELQARLGELQGEAASREDTICLLQNEKIILEAALQAAKSGKEELDRGARRLEEGTEETSETLEKLREELAIKSGQVEHLQQETAALKKQMQKIKEQFLQQKVMVEAYRRDATSKDQLISELKATRKRLDSELKELRQELMQVHGEKRTAEAELSRLHREVAQVRQHMADLEGHLQSAQKERDEMETHLQSLQFDKEQMVAVTEANEALKKQIEELQQEARKAITEQKQKMRRLGSDLTSAQKEMKTKHKAYENAVGILSRRLQEALAAKEAADAELGQLRAQGGSSDSSLALHERIQALEAELQAVSHSKTLLEKELQEVIALTSQELEESREKVLELEDELQESRGFRKKIKRLEESNKKLALELEHEKGKLTGLGQSNAALREHNSILETALAKREADLVQLNLQVQAVLQRKEEEDRQMKHLVQALQASLEKEKEKVNSLKEQVAAAKVEAGHNRRHFKAASLELSEVKKELQAKEHLVQKLQAEADDLQIREGKHSQEIAQFQAELAEARAQLQLLQKQLDEQLSKQPVGNQEMENLKWEVDQKEREIQSLKQQLDLTEQQGRKELEGLQQLLQNVKSELEMAQEDLSMTQKDKFMLQAKVSELKNNMKTLLQQNQQLKLDLRRGAAKTRKEPKGEASSSNPATPIKIPDCPVPASLLEELLRPPPAVSKEPLKNLNSCLQQLKQEMDSLQRQMEEHALTVHESLSSWTPLEPATASPVPPGGHAGPRGDPQRHSQSRASKEGPGE	binds

Reference: paper PMC8424950
